Taken from: PubChem BioAssay AID652243 (Drosophila RNAi Screening Center, 2013)

- Purpose: 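Fly regulators of androgen-dependent reporter output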 (primary screen)
- Cell system: Drosophila S2R+ cells
- Reagent: long dsRNA against Drosophila genes
- Time to read-out: 72 h (48 h, then 24 h hormone)
- Treatment: synthetic androgen R1881 at 10 nM for 24 h
- Measurement: 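Firefly light from an androgen-responsive reporter and Renilla control light per well, raw and unnormalised, for each of two replicates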
- Scale: firefly reporter light: higher = more light from androgen-responsive reporter; Renilla control light: higher = more constitutive control signal (cell number, transfection)
- Hit rule: 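Across duplicate plates, a knock-down whose log firefly/Renilla ratio shifted a set fold down or up from the GFP/LacZ control mean was a hit; the downward cut appears as both 1.5 and 3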
- Meaning of the calls: active = hit: reporter lowered or raised; inactive = no hit
The screen tested about 24,000 reagents; this is a random part of those with a known target gene and a result. Of all reagents, 246 (1%) got an active call. 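Plates not normalised; calls are printed but the firefly/Renilla ratio behind them is not deposited; fold cut for lowering reported inconsistently.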 Raw values vary from plate to plate and are shown uncorrected. Entries without a mark were called inactive. Names joined by + are all predicted targets of the reagent. Not stated in the record: the amount of reagent.

no.	gene	DRSC id	firefly reporter light, replicate 1	firefly reporter light, replicate 2	Renilla control light, replicate 1	Renilla control light, replicate 2
1	Obp83b	DRSC12360	57082	39692	1.31e6	8.65e5
2	Obp83b	DRSC25688	4.05e5	3.73e5	4.10e5	4.45e5
3	pwn	DRSC06035	4.63e5	7.98e5	1.29e6	1.83e6
4	pwn	DRSC25224	2.76e5	3.13e5	4.25e5	3.99e5
5	CG31562 (retired record)	DRSC12273	18641	31510	6.27e5	6.39e5
6	CG31562 (retired record)	DRSC12274	56841	68593	1.15e6	1.37e6
7	CG34297	DRSC38827	6.30e5	6.49e5	1.71e6	1.59e6
8	CG31104	DRSC14658	2.33e5	3.46e5	2.09e6	2.20e6
9	CG31104	DRSC24390	4.82e5	4.69e5	5.39e5	7.98e5
10	lbk	DRSC07178	6.98e5	8.34e5	7.16e5	8.45e5
11	CG3588	DRSC18473	5.45e5	7.02e5	3.87e6	3.44e6
12	CG3588	DRSC24598	6.42e5	7.35e5	1.19e6	1.21e6
13	CG3987	DRSC15531	1.22e5	1.15e5	9.73e5	8.40e5
14	CG7829	DRSC16322	1.28e5	99437	1.49e6	1.87e6
15	CG7829	DRSC28615	4.79e5	4.56e5	1.52e6	1.44e6
16	siz	DRSC11622	2.05e5	1.56e5	1.95e6	2.08e6
17	siz	DRSC11690	5.67e5	5.42e5	1.81e6	1.92e6
18	siz	DRSC27379	2.67e5	2.71e5	4.59e5	4.31e5
19	CG33710	DRSC37842	8.40e5	8.39e5	1.64e6	1.33e6
20	CG12914	DRSC06229	3.78e5	3.14e5	2.54e6	2.14e6
21	Lectin-galC1	DRSC03362	1.22e5	1.38e5	1.26e6	1.79e6
22	Arl8	DRSC16334	86069	85165	1.49e6	1.67e6
23	tty	DRSC20588	1.46e5	1.68e5	7.56e5	8.92e5
24	tty	DRSC26868	3.30e5	2.88e5	6.53e5	7.19e5
25	c-cup	DRSC00458	87837	94462	7.43e5	8.73e5
26	CG33986	DRSC37802	1.17e5	1.22e5	7.31e5	5.64e5
27	FarO	DRSC18475	3.70e5	4.38e5	4.82e6	3.92e6
28	rump	DRSC16480	31840	85605	3.51e5	8.34e5
29	snoRNA:U31:54Ec + snoRNA:snR38:54Eb + snoRNA:U27:54Eb + 8 more	DRSC06458	1.09e5	1.02e5	2.02e6	2.02e6
30	CG9692	DRSC11091	2.34e5	1.90e5	1.86e6	1.08e6
31	Ass + CG31286	DRSC12493	70513	75507	1.70e6	1.64e6
32	CG12020	DRSC08226	72170	52712	9.38e5	1.10e6
33	CG12020	DRSC28730	3.62e5	2.76e5	1.29e6	1.15e6
34	CG10431	DRSC02055	1.66e5	1.76e5	1.84e6	2.00e6
35	wat	DRSC14854	2.63e5	1.77e5	2.17e6	3.03e6
36	mRpL48	DRSC00506	1.02e5	73151	6.67e5	7.33e5
37	CG31200	DRSC15285	2.72e5	2.45e5	2.94e6	3.49e6
38	CG13461	DRSC10008	2.09e5	2.41e5	1.79e6	1.55e6
39	CG13461	DRSC24462	9.21e5	1.13e6	7.70e5	1.02e6
40	CG3339	DRSC13821		87286	18081	1.88e5
41	CG3339	DRSC15479	83418	1.38e5	1.68e6	2.35e6

Entries listed so far whose gene name starts with S or s (4):
gene	DRSC id	firefly reporter light, replicate 1	firefly reporter light, replicate 2	Renilla control light, replicate 1	Renilla control light, replicate 2
siz	DRSC11622	2.05e5	1.56e5	1.95e6	2.08e6
siz	DRSC11690	5.67e5	5.42e5	1.81e6	1.92e6
siz	DRSC27379	2.67e5	2.71e5	4.59e5	4.31e5
snoRNA:U31:54Ec + snoRNA:snR38:54Eb + snoRNA:U27:54Eb + 8 more	DRSC06458	1.09e5	1.02e5	2.02e6	2.02e6
